Measurements taken from patent US20120134991A1.
Results are given in words; binding and its absence hold for the method and conditions named. For part of these data: In cells and extracts the contact can be indirect. Some results given as binding are weak or reduced against the parent protein; the word gives no strength. For part of these data: Where a sequence is shown, tags or fusion partners need not be part of it. One block for each substance: values may come before it.

Amino acid sequences for entries named in this document (tags omitted). A change or cut given only in a name is not applied to a line headed by its entry.
UniProt P18901: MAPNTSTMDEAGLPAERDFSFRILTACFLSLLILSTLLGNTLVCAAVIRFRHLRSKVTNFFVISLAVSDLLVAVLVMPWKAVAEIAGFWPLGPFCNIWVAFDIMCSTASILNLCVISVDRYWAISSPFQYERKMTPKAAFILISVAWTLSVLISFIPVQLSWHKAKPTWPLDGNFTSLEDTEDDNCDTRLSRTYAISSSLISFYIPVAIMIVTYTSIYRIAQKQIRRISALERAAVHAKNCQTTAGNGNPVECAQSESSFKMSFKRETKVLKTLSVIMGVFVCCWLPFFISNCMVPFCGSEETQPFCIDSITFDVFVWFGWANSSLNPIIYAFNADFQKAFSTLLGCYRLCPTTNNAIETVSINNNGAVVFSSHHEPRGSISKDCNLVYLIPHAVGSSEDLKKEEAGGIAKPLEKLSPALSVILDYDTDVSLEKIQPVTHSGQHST
UniProt P14416: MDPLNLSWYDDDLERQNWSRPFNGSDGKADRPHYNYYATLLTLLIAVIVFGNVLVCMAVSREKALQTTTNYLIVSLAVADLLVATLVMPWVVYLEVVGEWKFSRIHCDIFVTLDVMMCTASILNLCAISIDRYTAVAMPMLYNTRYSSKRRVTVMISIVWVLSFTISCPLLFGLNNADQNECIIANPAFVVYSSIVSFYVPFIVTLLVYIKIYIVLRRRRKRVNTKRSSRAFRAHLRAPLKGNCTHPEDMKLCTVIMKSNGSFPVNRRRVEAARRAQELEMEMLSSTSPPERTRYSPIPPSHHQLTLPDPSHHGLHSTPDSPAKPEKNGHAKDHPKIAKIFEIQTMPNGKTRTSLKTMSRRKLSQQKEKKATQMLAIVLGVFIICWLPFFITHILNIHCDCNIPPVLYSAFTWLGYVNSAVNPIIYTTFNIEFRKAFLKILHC
UniProt P21728: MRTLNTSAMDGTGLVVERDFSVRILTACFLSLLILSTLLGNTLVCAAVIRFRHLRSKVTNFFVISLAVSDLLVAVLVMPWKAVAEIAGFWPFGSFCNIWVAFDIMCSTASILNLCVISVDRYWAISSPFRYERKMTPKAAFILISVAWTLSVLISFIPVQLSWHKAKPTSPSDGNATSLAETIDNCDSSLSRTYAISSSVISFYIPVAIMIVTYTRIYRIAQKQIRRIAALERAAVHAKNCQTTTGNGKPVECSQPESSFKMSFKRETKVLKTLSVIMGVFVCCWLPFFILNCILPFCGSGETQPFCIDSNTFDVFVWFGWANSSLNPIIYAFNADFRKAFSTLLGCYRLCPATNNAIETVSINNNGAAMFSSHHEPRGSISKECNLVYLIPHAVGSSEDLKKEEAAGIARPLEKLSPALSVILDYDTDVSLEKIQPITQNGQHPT

Legend:
[1] = target: D1 receptor from solubilized rat striatum / prefrontal cortex (rat) (UniProt P18901); assay: GST pull-down from rat striatal extract, Western blot (FIG. 1C)
[2] = target: D1 receptor from solubilized rat striatum / prefrontal cortex (rat) (UniProt P18901); assay: GST pull-down from rat striatal extract, Western blot (FIG. 1D)
[3] = target: T1, GST-D2LIL3-29-2 (I256-V270) (human); assay: in vitro binding assay with S35-labelled probe (FIG. 1F)
T1 sequence: IMKSNGSFPVNRRRV

[4] = target: D2 receptor from human post-mortem striatum (human) (UniProt P14416); assay: co-immunoprecipitation with D2 receptor antibody from human post-mortem striatum, immunoblot with D1 antibody
[5] = target: D2 receptor from human post-mortem striatum (human) (UniProt P14416); assay: co-immunoprecipitation with anti-D2 receptor antibody from human post-mortem striatum, densitometry of Western blots
[6] = target: D2 receptor from human post-mortem striatum (human) (UniProt P14416); assay: co-immunoprecipitation with anti-D2 receptor antibodies from human post-mortem striatum, immunoblot with D1 antibody (FIG. 4)

- binding [1]: binds
- binding [2]: binds
Substance: GST-D2IL3-L (K211-Q373) (from UniProt P14416 211-373)

- binding [3]: binds
Substance: S35-D1 tail probe (from UniProt P21728 332-446)

- binding [4]: binds
- binding [5]: binds
- binding [6]: binds
Substance: human D1R (from UniProt P21728 1-446) (receptor)
